Source: article PMC3621835
No constants are given. Whether binding was seen depends on the method and setting. For some assays here: In cells and extracts the contact can be indirect. Some entries that bind do so weakly or less than the wild type.

Amino acid sequences for entries named in this document (tags omitted). Residues count along the entry.
UniProt P15253, residues 18-418: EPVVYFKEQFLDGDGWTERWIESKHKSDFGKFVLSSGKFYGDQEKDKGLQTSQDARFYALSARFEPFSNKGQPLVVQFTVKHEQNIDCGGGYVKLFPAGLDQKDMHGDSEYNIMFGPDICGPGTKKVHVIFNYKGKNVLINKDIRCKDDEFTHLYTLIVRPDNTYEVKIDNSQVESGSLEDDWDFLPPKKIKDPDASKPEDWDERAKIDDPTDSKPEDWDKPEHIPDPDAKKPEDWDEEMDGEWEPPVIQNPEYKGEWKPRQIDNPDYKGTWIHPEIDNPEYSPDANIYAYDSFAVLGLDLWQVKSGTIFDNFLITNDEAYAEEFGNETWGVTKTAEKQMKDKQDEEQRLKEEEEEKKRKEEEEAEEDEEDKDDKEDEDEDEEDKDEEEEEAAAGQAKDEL

Key:
[1] = target: amyloid precursor protein (endogenous, mouse brain) (mouse (endogenous in brain synaptosomal fraction and brain homogenate)) (UniProt P12023); assay: pull-down; competition: calreticulin peptide added to GST/C-domain and a detergent extract of mouse brain homogenate; glutathione-agarose; Western blot with APP antibody A8967; only the binder purified
[2] = target: recombinant rabbit calreticulin (rabbit) (UniProt P15253); assay: ELISA; recombinant calreticulin coated (5–10 µg/ml, polyvinylchloride 96-well plates); biotinylated peptides at different concentrations in PBS-T with 1% BSA, 1 mM CaCl2, 1 mM MgCl2, 1 mM MnCl2, 1 h, room temperature; HRP-coupled streptavidin; both purified

Binder	binding [1]	binding [2]
FLITNDEAYAEEFGN [calreticulin peptide comprising amino acids 330–344]	binds	–
TNIKTEEISEVKMDAEFGHDSGFEVRHQKC (biotin on the N-terminus (biotin-TNIK...HQKC-OH)) [synthetic biotinylated APP-β peptide comprising the β-secretase cleavage site of APP]	–	no binding
